The results in this text go back to article PMC7819943, “Rice protein-binding microarrays: a tool to detect cis-acting elements near promoter regions in rice”.

The other results are listed elsewhere or left out.

The target of this test is T1, OsSMF1 (Oryza sativa, UniProt Q6ZLB0 1-436).
T1 sequence: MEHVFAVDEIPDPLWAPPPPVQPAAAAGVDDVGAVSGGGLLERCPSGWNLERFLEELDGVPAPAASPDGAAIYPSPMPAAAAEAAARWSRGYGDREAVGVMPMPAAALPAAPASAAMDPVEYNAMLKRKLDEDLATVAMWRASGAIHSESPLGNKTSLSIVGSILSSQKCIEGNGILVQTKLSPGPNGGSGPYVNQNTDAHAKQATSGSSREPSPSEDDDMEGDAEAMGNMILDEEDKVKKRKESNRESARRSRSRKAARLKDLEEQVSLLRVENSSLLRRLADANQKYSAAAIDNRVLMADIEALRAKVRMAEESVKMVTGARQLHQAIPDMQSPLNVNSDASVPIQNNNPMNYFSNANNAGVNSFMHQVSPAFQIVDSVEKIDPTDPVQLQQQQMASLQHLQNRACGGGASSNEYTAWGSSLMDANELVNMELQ
Briefly: protein-binding microarray (RPBM); PBS, 2% BSA, 51.3 ng/ul salmon testes DNA, 50 uM zinc acetate, 200 nM TF, 25 C, 1 h; high values mean tight binding. To be noted: protein: recombinant; tags: N-terminal polyhistidine and DsRed monomer fusion (pET32a); chain copies: 2; label: CyDye5-dUTP incorporated in the synthesized complementary strand; 3' TTTTT single-stranded linker to array surface; dsDNA, one strand shown. The gist of the method:
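Ni–NTA purification followed expression in E. coli BL21-CodonPlus of transcription factors fused N-terminally to a polyhistidine tag and DsRed. At 200 nM in PBS with 2% BSA, salmon testes DNA and 50 µM zinc acetate, the protein was incubated for 1 h at 25 °C with a custom Agilent array that had been primer-extended with Cy5-dUTP and blocked with 2% BSA. After washing, the array was read on an Axon 4000B scanner. The binding signal is per-feature fluorescence intensity in arbitrary units.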
“ACTACTTCCTCCGTTTCACGATGTAAGACTTTCTAACATTCGGAGTCACCTAGTGCAG”: the binding signal was 3460 fluorescence intensity (a.u.). With “AAGAAATCAATGACCTAGTGCAGCTGGGAGGTTTACGGCACGGAGTCACCTAGTGCAG”, the binding signal was 15100 fluorescence intensity (a.u.).

Take “TATTCGGTGCTACAGTTGAGTAGACACAGCTGTTTGGCTGCGGAGTCACCTAGTGCAG”: the binding signal was 3550 fluorescence intensity (a.u.). Take “GAAACTCAACACGACGAAGCCGCGGCCCGCGGAAGAGGTCCGGAGTCACCTAGTGCAG”: the binding signal was 17900 fluorescence intensity (a.u.). For “GGAGGGCACGCACGCACAGATCCCTCCCCTCTCCTCGCTGCGGAGTCACCTAGTGCAG” the value was 3390 fluorescence intensity (a.u.); for “AAATGCCCCTGTCTCCACCTCACTGACATATGGGCCCTGTCGGAGTCACCTAGTGCAG”, 5980 fluorescence intensity (a.u.); for “CGAACGAGAATTCATGGAATCCAAGAAAAGAGACACGTGTCGGAGTCACCTAGTGCAG”, 5610 fluorescence intensity (a.u.). For “AAATGGTCGAAAAGTCAACAGCGTCATACATTGAAATACGCGGAGTCACCTAGTGCAG” the value was 3900 fluorescence intensity (a.u.); for “CCGGCACTGCCTACGTTTCTGCGCACGTCAGGATGTCGTACGGAGTCACCTAGTGCAG”, 7370 fluorescence intensity (a.u.). As for “GATTGGGTTGGGTAGAGCGGCCACACTATTGCGGAATTTCCGGAGTCACCTAGTGCAG”, the figure is 3640 fluorescence intensity (a.u.); as for “TTATTTTGGAACTGGACCTATCTAATTTCTCCTAGTCAGACGGAGTCACCTAGTGCAG”, 3780 fluorescence intensity (a.u.); as for “ATTTAAGCGCTTTCTCTGAATTTTCAGATATAAACATCCCCGGAGTCACCTAGTGCAG”, 3990 fluorescence intensity (a.u.). For “CTTGTTCGTCGTCTCTACAGCCTACAATGAGACATCTGAACGGAGTCACCTAGTGCAG”, the binding signal was 3690 fluorescence intensity (a.u.).

For “CCAGATCCGTGCGTCACCTGCGCGCACAGGCGCACAGGCGCGGAGTCACCTAGTGCAG”, the binding signal is 35400 fluorescence intensity (a.u.).

Consider “CTTGTTTCATTAAGGGAAACGCTGACGACTACTTCGTCCGCGGAGTCACCTAGTGCAG”, for which the binding signal was 3510 fluorescence intensity (a.u.). For “GCTATGAGGCCCATTTCGTCGTCGTCGTCGTCGTCGTCCCCGGAGTCACCTAGTGCAG” the value was 3590 fluorescence intensity (a.u.). As for “GAGGACGCCGACGCTGAAGATCACGTGGAGGCCCATGGCGCGGAGTCACCTAGTGCAG”, the figure is 4820 fluorescence intensity (a.u.); as for “AAGATAAGTCATTGTGTGACATGTCCTTTGGTAAATTTCTCGGAGTCACCTAGTGCAG”, 3830 fluorescence intensity (a.u.); as for “CATCGGACGGCCCATGTAGCCCAACTCCTCCGCTGCCACGCGGAGTCACCTAGTGCAG”, 3410 fluorescence intensity (a.u.). For “CATATCTATCTTACGTGGACGCCACAAGGTTCTATAGGCTCGGAGTCACCTAGTGCAG” the value was 8710 fluorescence intensity (a.u.); for “GGCATTTCTTAGAAATTTCATATGATCTAACAAATTGTTACGGAGTCACCTAGTGCAG”, 3190 fluorescence intensity (a.u.). On to “TACAGGCCCTGTATACCTGGATGGGCCTACATTGAAGCCCCGGAGTCACCTAGTGCAG”, for which the binding signal is 4000 fluorescence intensity (a.u.). As for “TCTAGCTGATTCACGGAAAATCAATCAAATGTGTATGCTCCGGAGTCACCTAGTGCAG”, the figure is 3360 fluorescence intensity (a.u.). For “CATAGATGGGCTCATCAGTAATGCTCCATATCAACACGACCGGAGTCACCTAGTGCAG” the value was 35200 fluorescence intensity (a.u.); for “CGACTCGACGTCGTCGTCATTCTTCATGGCTGGGTGGGTTCGGAGTCACCTAGTGCAG”, 3670 fluorescence intensity (a.u.). For “TACCAGTGTCACGCAGTGACGCAATGGATCATGCTATCCACGGAGTCACCTAGTGCAG” the value was 4450 fluorescence intensity (a.u.); for “TGAGTGAATACACAGTACTATGACGACGATAAGGTTGGGGCGGAGTCACCTAGTGCAG”, 32700 fluorescence intensity (a.u.).

For “TTCTATCTGTACGTGTACATGACAGTGAGATTTTATTAAACGGAGTCACCTAGTGCAG”, the binding signal was 5140 fluorescence intensity (a.u.). Take “GGTCCATATGTGGAGCCCACATGTCAGGGACCCGTGTGGCCGGAGTCACCTAGTGCAG”: the binding signal was 3460 fluorescence intensity (a.u.).

Consider “GACAATTACTTAGTCCTCACCTACCGTCGACCTCACACGTCGGAGTCACCTAGTGCAG”, for which the binding signal is 3220 fluorescence intensity (a.u.). Turning to “ATCATTTGCTTTTGTTGCAAATGACGTGCAAAACTACAAACGGAGTCACCTAGTGCAG”, the binding signal is 4790 fluorescence intensity (a.u.). With “GCCGGCTCGATCTACGAGCCGGCCGTGTTTCGAAATAACCCGGAGTCACCTAGTGCAG”, the binding signal is 13900 fluorescence intensity (a.u.).

With “AGATTAGGGACTAAATTTTAGTCCATGTCACATCGAATGTCGGAGTCACCTAGTGCAG”, the binding signal was 3920 fluorescence intensity (a.u.).

With “ATCATGTGAGATCTTGTTGTAAAGATTTAATTCTTACAAACGGAGTCACCTAGTGCAG”, the binding signal was 19300 fluorescence intensity (a.u.). Consider “ATTGCCAGTTACAGCTATCACACGTACTTATACCTCCGCCCGGAGTCACCTAGTGCAG”, for which the binding signal is 4550 fluorescence intensity (a.u.). As for “CCATTCGCTCGTGCTCTCGTTGGCGTGGAACAACAGGTGCCGGAGTCACCTAGTGCAG”, the figure is 3420 fluorescence intensity (a.u.); as for “GGCCCACTCAACCACGTTTCAGTTACTCCTTAATGACCCACGGAGTCACCTAGTGCAG”, 3860 fluorescence intensity (a.u.). As for “TGTTGCTCGGCCAAACGTACACACAGTTCGTTATATATCGCGGAGTCACCTAGTGCAG”, the figure is 12100 fluorescence intensity (a.u.). Consider “TAAGTTTCTAAGGAAATGACCATCATAATGATGTTGACATCGGAGTCACCTAGTGCAG”, for which the binding signal was 3220 fluorescence intensity (a.u.).

Turning to “CACCCGCACCCGCCCGCACGGCCGCGCCCGCGTCACCACCCGGAGTCACCTAGTGCAG”, the binding signal was 6150 fluorescence intensity (a.u.). For “AGAATTTGTTCGTCACCCATATATCGGCGTCATGACCTCGCGGAGTCACCTAGTGCAG” the value was 3510 fluorescence intensity (a.u.); for “GTCTCCCTGCGACGCTGGCGCCATCGCGTCACCGTCTCCGCGGAGTCACCTAGTGCAG”, 7170 fluorescence intensity (a.u.).
